Results published in paper PMC11336912.
Results are given in words; binding and its absence hold for the method and conditions named. In cells and extracts the contact can be indirect. Here binding means that the protein was enriched with, or labelled near, the bait; the list need not be complete.

Sequences of proteins named here, by UniProt entry; tags and fusion partners are left off.
UniProt Q7TPH6: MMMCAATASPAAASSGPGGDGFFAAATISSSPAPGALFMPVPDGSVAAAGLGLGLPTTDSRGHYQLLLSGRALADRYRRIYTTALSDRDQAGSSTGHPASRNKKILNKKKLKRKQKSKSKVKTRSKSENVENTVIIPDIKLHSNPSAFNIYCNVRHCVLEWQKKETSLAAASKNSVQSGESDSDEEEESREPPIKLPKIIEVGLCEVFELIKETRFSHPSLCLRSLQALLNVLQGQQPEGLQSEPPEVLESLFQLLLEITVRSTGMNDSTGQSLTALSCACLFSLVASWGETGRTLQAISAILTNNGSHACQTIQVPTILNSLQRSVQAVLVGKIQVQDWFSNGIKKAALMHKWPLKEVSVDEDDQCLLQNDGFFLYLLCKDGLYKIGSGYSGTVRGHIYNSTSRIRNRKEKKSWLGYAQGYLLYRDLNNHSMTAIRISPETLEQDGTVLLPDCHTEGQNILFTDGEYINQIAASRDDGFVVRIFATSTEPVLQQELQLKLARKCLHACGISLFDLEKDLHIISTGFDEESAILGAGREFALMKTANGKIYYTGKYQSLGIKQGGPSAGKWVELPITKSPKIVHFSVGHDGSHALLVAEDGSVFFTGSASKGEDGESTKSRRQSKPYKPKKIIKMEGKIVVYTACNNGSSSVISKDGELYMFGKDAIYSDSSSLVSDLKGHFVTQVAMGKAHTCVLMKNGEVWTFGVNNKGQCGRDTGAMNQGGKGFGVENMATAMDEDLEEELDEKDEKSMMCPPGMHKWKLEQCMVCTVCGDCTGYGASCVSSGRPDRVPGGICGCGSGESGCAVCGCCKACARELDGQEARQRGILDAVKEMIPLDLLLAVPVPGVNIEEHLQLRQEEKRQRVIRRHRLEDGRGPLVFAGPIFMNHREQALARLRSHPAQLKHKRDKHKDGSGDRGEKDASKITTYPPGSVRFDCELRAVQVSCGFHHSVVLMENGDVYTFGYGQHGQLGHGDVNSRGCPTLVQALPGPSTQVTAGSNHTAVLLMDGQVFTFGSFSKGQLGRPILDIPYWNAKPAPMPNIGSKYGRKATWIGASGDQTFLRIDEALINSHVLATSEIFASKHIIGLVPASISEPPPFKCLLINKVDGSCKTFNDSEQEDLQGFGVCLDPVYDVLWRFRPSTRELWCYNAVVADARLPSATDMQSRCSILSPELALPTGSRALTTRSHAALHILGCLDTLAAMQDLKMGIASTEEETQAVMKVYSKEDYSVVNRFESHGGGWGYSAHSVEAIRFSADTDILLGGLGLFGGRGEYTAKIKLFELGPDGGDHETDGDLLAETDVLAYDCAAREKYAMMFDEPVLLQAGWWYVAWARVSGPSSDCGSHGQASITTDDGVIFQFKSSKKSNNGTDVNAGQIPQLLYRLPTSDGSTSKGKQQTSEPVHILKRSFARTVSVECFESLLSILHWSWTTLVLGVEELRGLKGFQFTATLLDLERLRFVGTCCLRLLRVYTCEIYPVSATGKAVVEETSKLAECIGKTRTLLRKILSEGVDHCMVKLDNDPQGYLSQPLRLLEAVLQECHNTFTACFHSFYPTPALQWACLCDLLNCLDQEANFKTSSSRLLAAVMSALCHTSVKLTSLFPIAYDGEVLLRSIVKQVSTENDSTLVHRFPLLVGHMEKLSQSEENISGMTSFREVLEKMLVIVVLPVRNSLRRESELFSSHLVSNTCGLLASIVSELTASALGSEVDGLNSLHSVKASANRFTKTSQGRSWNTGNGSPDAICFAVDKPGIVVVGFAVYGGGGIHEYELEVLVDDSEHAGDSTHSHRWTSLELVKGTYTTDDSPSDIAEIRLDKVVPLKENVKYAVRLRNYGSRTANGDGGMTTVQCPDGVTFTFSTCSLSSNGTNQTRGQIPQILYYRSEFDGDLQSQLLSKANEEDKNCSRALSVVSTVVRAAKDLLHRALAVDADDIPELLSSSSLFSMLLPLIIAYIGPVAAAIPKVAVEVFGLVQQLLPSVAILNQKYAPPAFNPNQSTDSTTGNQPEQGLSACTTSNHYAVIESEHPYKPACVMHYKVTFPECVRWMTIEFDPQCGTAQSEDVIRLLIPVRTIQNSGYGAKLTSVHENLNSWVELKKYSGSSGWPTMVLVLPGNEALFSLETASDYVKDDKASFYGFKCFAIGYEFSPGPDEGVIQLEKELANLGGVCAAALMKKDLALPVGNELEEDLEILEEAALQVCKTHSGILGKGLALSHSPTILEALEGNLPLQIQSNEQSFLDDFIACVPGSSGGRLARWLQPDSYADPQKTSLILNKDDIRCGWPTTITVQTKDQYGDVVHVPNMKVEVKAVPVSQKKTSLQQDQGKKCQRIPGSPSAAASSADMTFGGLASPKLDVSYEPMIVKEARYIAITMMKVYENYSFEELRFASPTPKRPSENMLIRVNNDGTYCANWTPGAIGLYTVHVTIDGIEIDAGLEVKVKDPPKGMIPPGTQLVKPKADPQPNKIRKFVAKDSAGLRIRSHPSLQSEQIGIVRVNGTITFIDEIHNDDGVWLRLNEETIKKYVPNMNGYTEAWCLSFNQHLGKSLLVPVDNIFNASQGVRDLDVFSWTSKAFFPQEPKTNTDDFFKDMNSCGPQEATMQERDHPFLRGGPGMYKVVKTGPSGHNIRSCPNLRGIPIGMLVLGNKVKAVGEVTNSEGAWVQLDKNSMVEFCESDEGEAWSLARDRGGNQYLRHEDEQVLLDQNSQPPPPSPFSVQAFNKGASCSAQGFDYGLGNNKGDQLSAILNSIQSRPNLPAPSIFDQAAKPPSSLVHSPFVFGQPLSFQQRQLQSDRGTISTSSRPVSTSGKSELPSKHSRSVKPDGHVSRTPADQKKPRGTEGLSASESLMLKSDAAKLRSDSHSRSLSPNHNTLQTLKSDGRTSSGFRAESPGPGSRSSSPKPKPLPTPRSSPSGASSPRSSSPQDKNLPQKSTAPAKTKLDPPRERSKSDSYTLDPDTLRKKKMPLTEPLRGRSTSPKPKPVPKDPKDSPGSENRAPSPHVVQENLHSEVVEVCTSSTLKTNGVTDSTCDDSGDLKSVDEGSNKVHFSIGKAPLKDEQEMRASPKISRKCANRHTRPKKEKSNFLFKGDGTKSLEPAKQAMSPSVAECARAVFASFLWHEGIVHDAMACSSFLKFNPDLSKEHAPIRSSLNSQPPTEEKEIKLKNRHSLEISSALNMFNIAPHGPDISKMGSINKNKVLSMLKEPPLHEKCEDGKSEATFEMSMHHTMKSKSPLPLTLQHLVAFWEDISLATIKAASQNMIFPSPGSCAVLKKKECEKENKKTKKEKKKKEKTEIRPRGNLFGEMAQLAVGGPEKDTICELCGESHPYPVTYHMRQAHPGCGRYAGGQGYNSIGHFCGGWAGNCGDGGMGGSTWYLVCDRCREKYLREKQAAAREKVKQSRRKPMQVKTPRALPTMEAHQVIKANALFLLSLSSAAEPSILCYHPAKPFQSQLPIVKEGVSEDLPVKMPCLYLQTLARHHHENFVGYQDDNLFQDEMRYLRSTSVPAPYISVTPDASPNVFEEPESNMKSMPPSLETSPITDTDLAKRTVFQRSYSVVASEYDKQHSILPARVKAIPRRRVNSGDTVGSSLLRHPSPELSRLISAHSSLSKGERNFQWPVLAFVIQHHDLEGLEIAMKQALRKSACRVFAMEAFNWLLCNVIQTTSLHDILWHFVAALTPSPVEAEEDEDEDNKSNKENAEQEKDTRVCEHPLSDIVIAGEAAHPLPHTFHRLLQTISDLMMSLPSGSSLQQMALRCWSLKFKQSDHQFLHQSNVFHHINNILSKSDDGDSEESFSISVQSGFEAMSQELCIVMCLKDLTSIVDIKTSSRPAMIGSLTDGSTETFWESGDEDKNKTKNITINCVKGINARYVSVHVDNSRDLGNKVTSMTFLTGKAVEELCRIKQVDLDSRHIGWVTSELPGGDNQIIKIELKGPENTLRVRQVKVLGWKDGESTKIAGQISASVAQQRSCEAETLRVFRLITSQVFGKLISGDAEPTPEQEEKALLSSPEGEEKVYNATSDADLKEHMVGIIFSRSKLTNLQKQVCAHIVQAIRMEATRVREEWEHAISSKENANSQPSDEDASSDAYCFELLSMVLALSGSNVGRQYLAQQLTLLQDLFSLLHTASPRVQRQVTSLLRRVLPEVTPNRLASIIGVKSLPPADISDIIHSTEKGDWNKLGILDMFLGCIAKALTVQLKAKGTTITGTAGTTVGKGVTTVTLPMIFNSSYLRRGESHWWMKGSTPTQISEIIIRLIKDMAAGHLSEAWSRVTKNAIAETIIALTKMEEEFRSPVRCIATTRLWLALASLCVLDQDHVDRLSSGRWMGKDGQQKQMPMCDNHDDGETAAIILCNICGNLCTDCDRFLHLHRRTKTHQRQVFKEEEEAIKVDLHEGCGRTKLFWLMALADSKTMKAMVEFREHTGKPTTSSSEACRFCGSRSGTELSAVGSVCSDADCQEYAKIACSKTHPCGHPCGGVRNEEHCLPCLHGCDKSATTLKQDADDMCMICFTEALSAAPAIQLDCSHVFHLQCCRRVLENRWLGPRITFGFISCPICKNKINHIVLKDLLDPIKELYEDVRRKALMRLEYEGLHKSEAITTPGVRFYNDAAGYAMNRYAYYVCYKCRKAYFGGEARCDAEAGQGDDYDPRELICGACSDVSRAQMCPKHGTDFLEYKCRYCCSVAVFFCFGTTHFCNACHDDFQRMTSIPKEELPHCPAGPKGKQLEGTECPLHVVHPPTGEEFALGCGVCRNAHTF

Molecular target: MYCBP2 (endogenous, microglia) (mouse (endogenous in primary microglia)) (UniProt Q7TPH6)
Test: affinity purification with mass spectrometry; IP-MS to identify proteins interacting with MYCBP2; in microglia according to the discussion

binding: binds
B1: S100A9 (endogenous, microglia) (protein, UniProt P31725 1-113)
chain: MANKAPSQMERSITTIIDTFHQYSRKEGHPDTLSKKEFRQMVEAQLATFMKKEKRNEALINDIMEDLDTNQDNQLSFEECMMLMAKLIFACHEKLHENNPRGHGHSHGKGCGK
